Values quoted from earlier work in US11707436B2, “Methods of treating inflammatory disorders and global inflammation with compositions comprising phospholipid nanoparticle encapsulations of NSAIDS” (NanoSphere Health Sciences, LLC, priority 2014, dated 2023).
At least one compound was matched to its structure with a doubt left.

Test system: NF-KappaB
Settings: highly variable efficacy

Cc1ccc(-c2cc(C(F)(F)F)nn2-c2ccc(S(N)(=O)=O)cc2)cc1 [celecoxib]
inhibition of TNF-induced NF-KappaB activation: inhibited

C[C@@H]1C[C@H]2[C@@H]3CCC4=CC(=O)C=C[C@]4(C)[C@@]3(F)[C@@H](O)C[C@]2(C)[C@@]1(O)C(=O)CO [dexamethasone]
inhibition of TNF-induced NF-KappaB activation: inhibited
